Results reported in paper doi:10.1101/2021.08.25.457671.
These are yes or no findings as the source states them, for the method shown. Binding seen in cells or lysates may run through a third protein. Here binding means that the protein was enriched with, or labelled near, the bait; the list need not be complete.

Chains of the proteins cited; added tags and fusions are not shown.
UniProt P10591: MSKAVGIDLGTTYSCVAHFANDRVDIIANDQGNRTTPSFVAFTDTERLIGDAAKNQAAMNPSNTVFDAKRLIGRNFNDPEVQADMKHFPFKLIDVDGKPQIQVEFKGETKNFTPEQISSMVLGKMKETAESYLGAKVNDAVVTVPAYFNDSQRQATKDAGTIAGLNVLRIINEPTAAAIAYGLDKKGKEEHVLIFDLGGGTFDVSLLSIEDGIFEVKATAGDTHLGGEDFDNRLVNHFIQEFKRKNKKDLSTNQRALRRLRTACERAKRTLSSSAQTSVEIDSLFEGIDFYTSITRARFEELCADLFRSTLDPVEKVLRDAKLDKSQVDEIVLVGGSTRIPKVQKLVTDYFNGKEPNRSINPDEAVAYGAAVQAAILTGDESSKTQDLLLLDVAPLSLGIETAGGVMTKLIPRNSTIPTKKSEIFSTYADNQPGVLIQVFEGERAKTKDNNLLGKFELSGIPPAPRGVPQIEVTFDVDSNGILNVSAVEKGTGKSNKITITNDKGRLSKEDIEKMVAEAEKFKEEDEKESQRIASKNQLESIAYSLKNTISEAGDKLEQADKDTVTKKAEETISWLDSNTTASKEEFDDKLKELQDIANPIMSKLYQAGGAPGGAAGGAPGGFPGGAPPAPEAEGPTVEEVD
UniProt P25491: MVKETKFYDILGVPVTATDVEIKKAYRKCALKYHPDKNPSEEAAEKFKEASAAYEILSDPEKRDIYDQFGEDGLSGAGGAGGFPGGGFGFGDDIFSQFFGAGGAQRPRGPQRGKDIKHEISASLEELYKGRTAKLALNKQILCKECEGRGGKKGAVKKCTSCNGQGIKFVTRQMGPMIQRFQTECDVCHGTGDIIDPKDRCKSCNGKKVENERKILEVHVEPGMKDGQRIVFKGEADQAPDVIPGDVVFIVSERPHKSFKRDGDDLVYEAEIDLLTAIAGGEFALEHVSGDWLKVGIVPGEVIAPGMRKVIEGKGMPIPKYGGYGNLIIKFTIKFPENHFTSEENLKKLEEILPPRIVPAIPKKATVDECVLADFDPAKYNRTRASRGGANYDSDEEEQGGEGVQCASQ
UniProt P47079: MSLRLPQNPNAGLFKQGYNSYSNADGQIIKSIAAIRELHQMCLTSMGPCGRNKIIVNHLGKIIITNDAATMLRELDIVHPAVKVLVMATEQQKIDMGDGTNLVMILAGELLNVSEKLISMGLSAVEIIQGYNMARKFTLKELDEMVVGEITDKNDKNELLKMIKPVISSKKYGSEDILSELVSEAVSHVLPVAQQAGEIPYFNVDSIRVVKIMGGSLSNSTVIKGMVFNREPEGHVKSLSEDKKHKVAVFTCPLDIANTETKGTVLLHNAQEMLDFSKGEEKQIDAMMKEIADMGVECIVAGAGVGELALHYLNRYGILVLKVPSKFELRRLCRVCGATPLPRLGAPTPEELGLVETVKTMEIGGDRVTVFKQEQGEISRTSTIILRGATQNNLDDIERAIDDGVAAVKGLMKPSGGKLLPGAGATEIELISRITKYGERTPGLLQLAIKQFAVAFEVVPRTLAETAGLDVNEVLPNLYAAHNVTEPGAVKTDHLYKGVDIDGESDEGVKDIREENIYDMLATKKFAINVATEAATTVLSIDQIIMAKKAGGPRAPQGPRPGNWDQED

B1: Sse1 (protein, UniProt P32589 1-693)
chain: MSTPFGLDLGNNNSVLAVARNRGIDIVVNEVSNRSTPSVVGFGPKNRYLGETGKNKQTSNIKNTVANLKRIIGLDYHHPDFEQESKHFTSKLVELDDKKTGAEVRFAGEKHVFSATQLAAMFIDKVKDTVKQDTKANITDVCIAVPPWYTEEQRYNIADAARIAGLNPVRIVNDVTAAGVSYGIFKTDLPEGEEKPRIVAFVDIGHSSYTCSIMAFKKGQLKVLGTACDKHFGGRDFDLAITEHFADEFKTKYKIDIRENPKAYNRILTAAEKLKKVLSANTNAPFSVESVMNDVDVSSQLSREELEELVKPLLERVTEPVTKALAQAKLSAEEVDFVEIIGGTTRIPTLKQSISEAFGKPLSTTLNQDEAIAKGAAFICAIHSPTLRVRPFKFEDIHPYSVSYSWDKQVEDEDHMEVFPAGSSFPSTKLITLNRTGDFSMAASYTDITQLPPNTPEQIANWEITGVQLPEGQDSVPVKLKLRCDPSGLHTIEEAYTIEDIEVEEPIPLPEDAPEDAEQEFKKVTKTVKKDDLTIVAHTFGLDAKKLNELIEKENEMLAQDKLVAETEDRKNTLEEYIYTLRGKLEEEYAPFASDAEKTKLQGMLNKAEEWLYDEGFDSIKAKYIAKYEELASLGNIIRGRYLAKEEEKKQAIRSKQEASQMAAMAEKLAAQRKAEAEKKEEKKDTEGDVDMD

Biological target: HIS-tagged Ssa1 (budding yeast) (UniProt P10591)
Experiment: affinity purification with mass spectrometry

binding, binds:
Ydj1 (from UniProt P25491 1-409), Cct8 found by mass spectrometry with HIS-Ssa1 (from UniProt P47079 1-568), B1
